# Counter-ions that a name gives are not always drawn. Some of the results follow. Many values rest on one well or one pass, so single values are uncertain.
# Tested on: Drosophila melanogaster DPAGT1 (Alg7) RNAi eye model
# Assay: eye size Z-score vs DMSO-treated DPAGT1 model flies; higher = larger eye (suppression of DPAGT1 phenotype)
# Details: 5 uM
row,Compound,eye size Z-score
1,COc1cc(NC(C)CCCN)c2ncccc2c1 (stereo not drawn) [Primaquine diphosphate],-0.67
2,CCCCNc1c(C(=O)OCC)c(C)nc2c1cnn2CC [Tracazolate hydrochloride],1.08
3,COc1cc(-c2ccc(=O)[nH]n2)ccc1OC(F)F [Zardaverine],-0.28
4,CC1=C(/C=C/C(C)=C/C=C/C(C)=C\C(=O)O)C(C)(C)CCC1 [Isotretinoin],-0.21
5,CC/C(=C(/CC)c1ccc(O)cc1)c1ccc(O)cc1 [Diethylstilbestrol],-0.07
6,CSc1ccc2c(c1)N(CCC1CCCCN1C)c1ccccc1S2 (stereo not drawn) [Thioridazine hydrochloride],-0.12
7,Cc1cc(-c2ccccc2)nnc1NCCN1CCOCC1 [Minaprine dihydrochloride],0.53
8,NC(N)=Nc1nc(CSCC/C(N)=N/S(N)(=O)=O)cs1 [Famotidine],0.43
9,CN(C)[C@@H]1C(O)=C(C(N)=O)C(=O)[C@@]2(O)C(O)=C3C(=O)c4c(O)cccc4[C@@](C)(O)[C@H]3[C@H](O)[C@@H]12 [Oxytetracycline dihydrate],-0.11
10,Cc1cc(NS(=O)(=O)c2ccc(N)cc2)nc(C)n1 [Sulfisomidine],0.08
11,Cc1ccsc1/C=C/C1=NCCCN1C [Morantel tartrate],-0.2
12,CCCSS/C(CCO)=C(/C)N(C=O)Cc1cnc(C)nc1N [Prosultiamine],0.89
13,Nc1nc(NC2CC2)c2ncn([C@H]3C=C[C@@H](CO)C3)c2n1 [Abacavir sulfate],-1.06
14,CCOc1ccc2nc3cc(N)ccc3c(N)c2c1 [Ethacridine lactate],0.47
15,CCN(CC)CCNc1ccc(CO)c2sc3ccccc3c(=O)c12 [Hycanthone],0.59
16,CNC(C)CCC=C(C)C (stereo not drawn) [Isometheptene mucate],-0.21
17,CC(C)(C)CC(C)(C)c1ccc(O)c(Cc2ccc(Cl)cc2Cl)c1 [Clofoctol],-0.19
18,CN1CCN(c2c(F)cc3c(=O)c(C(=O)O)cn4c3c2OCN4C)CC1 [Marbofloxacin],-0.2
19,CCOC(=O)c1ccc(N)cc1 [Benzocaine],0.16
20,CCN(CC)CCOC(=O)C(c1ccccc1)c1ccccc1 [Adiphenine hydrochloride],1.31
21,OC(CCCN1CCCCC1)(c1ccccc1)c1ccccc1 [Diphenidol hydrochloride],-0.43
22,COc1cccc(OC)c1C(=O)N[C@@H]1C(=O)N2[C@@H]1SC(C)(C)[C@@H]2C(=O)O [Methicillin sodium],-0.66
23,Cc1ccc(S(=O)(=O)NC(=O)NN2CCCCCC2)cc1 [Tolazamide],0.78

# Looked up above:
# For eye size Z-score, CCCCNc1c(C(=O)OCC)c(C)nc2c1cnn2CC [Tracazolate hydrochloride] has the entry 1.08
# For eye size Z-score, CC1=C(/C=C/C(C)=C/C=C/C(C)=C\C(=O)O)C(C)(C)CCC1 [Isotretinoin] has the entry -0.21
